Measurements taken from PubChem BioAssay AID2685 (National Center for Advancing Translational Sciences (NCATS), 2010).
The other results are listed elsewhere or left out. Further columns of the screen follow, without active or inactive calls. Compounds called inactive in the main read-out are mostly missing here. Potencies come from curve fits of mixed quality, noted in brackets.

Experiment: qHTS Assay for Lipid Storage Modulators in Drosophila S3 Cells;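 on cell number change: cells counted by Cell Tracker Red CMTPX staining in the red channel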
Details: BODIPY lipid droplet fluorescence, 18-24 h; for cell number change: measured here: cell count max response, cells fed with added oleic acid
Summary of the method: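 Laser-scanning cytometry quantifies lipid droplet accumulation (500–530 nm total intensity; droplet/cell object ratio) in oleic acid-fed (400 uM added) Drosophila S3 cells treated with a concentration series. 20 uM Triacsin C defined 100% inhibition.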

[1] = measured here: lipid fluorescence (Fed channel) AC50, cells fed with added oleic acid
[2] = measured here: cell number channel AC50, cells fed with added oleic acid

Structure (SMILES) | cell number change [%] | AC50 [1] | AC50 [2]
O=C(NCCOc1ccccc1)c1ccc2n[nH]nc2c1 | 19 | 2.91 µM [rising, single point] | 
S=C(Nc1ccccc1)N1CCC(C2CCN(C(=S)Nc3ccccc3)CC2)CC1 |  | 4.11 µM [rising, partial curve, poor fit] | 
O=C(/C=C/c1ccc([N+](=O)[O-])cc1)NCc1cccnc1 | -18.8 |  | 
Cc1ccc(C(=O)Nc2nc(=O)n(C(=O)c3ccccc3C)s2)cc1 | -81 |  | 16.4 µM [falling, partial curve, poor fit]
c1ccc(NNC2=NCCCCC2)cc1 | 11.7 | 6.51 µM [rising, single point] | 0.0164 µM [rising, full curve, poor fit]
O=c1c(-c2ccc(Br)cc2)coc2c(CN3CCOCC3)c(O)ccc12 |  | 2.59 µM [rising, single point] | 
CC(C)c1ccc(NC(=O)C2C3C=CC4(CN(Cc5cccnc5)C(=O)C24)O3)cc1 (centres undefined) | -12.6 | 0.116 µM [falling, full curve, poor fit] | 4.61 µM [falling, single point]
CC(=O)NC1=NN(C(C)=O)C(C)(c2ccc(Br)cc2)S1 (centres undefined) | -62.8 | 18.4 µM [falling, partial curve] | 5.8 µM [falling, partial curve]
CCCc1cc(=O)[nH]c(SCC(=O)N(CC)C2CCS(=O)(=O)C2)n1 (centres undefined) | -14.6 | 29.1 µM [falling, single point] | 
CC(C)Cn1c(-c2ccc(Cl)cc2)cnc1SCC(=O)N1CCOCC1 | -14.2 | 2.06 µM [falling, partial curve, poor fit] | 2.06 µM [falling, partial curve, poor fit]
Cc1ccc2[nH]c(=O)c(CC=C(Cl)Cl)c(C)c2c1 | 38.2 | 5.8 µM [rising, full curve] | 5.17 µM [rising, partial curve]
COCCOC(=O)C1=C(C)NC(=S)NC1c1cccs1 (centres undefined) | 18.9 | 29.1 µM [rising, single point] | 
CN1CCc2cc3c(c4c2C1CC41CCC(=NO)CC1)OCO3 (centres undefined) | -7.42 |  | 
Cc1cc([N+](=O)[O-])ccc1-c1ccc(/C=N/NC(=O)c2ccc(Br)o2)o1 | 102 | 16.4 µM [falling, single point] | 9.2 µM [rising, partial curve]
COC(=O)c1sc(NC(=O)CSc2nnnn2C)nc1C | 10.8 |  | 
COc1ccc(N(C(=O)CNC(=O)c2ccco2)C(C(=O)NCC2CCCO2)c2ccccc2)c(OC)c1 (centres undefined) | -9.21 |  | 
Oc1ccccc1CNn1cnnc1 | 7.47 | 0.00461 µM [rising, full curve, poor fit] | 
Cc1ccc(S(=O)(=O)NC(C(=O)N2CCOCCOCCOCCOCC2)c2ccccc2)cc1 (centres undefined) | -27.3 | 2.06 µM [falling, full curve] | 2.06 µM [falling, full curve, poor fit]
COc1ccc(CCNS(=O)(=O)c2ccc(Cl)cc2)cc1OC |  | 0.58 µM [falling, single point] | 
CC(C)OC(=O)C1C(=O)CC(C)(O)C(C(=O)OC(C)C)C1c1ccc([N+](=O)[O-])cc1 (centres undefined) | 17.5 | 6.51 µM [rising, partial curve, poor fit] | 

Structure (SMILES) | cell number change [%] | AC50 [1] | AC50 [2]
O=C(Nc1ccc2c(c1)OCO2)C1CC(c2ccc(F)cc2)=NO1 (centres undefined) | 5.65 | 0.58 µM [rising, single point] | 5.17 µM [rising, partial curve]
COc1ccc(C2c3ccc(O)cc3Oc3ncn4nc(-c5ccccn5)nc4c32)cc1 (centres undefined) | -55.4 | 16.4 µM [falling, single point] | 25.9 µM [falling, partial curve, poor fit]
CCOc1ccc(C(C)NC(=S)NC2CCCCC2)cc1 (centres undefined) | -18.1 | 3.26 µM [falling, single point] | 6.51 µM [falling, single point]
COc1cc(C(=O)NCC(c2ccc(F)cc2)N2CCOCC2)ccc1OCc1ccccc1Cl (centres undefined) | 26.5 | 0.164 µM [rising, full curve] | 1.84 µM [rising, partial curve]
FC(F)(F)c1cccc(OCCOCCn2cncn2)c1 |  | 0.58 µM [rising, single point] | 
CC1(C)CC(=O)C2=C(C1)N(Cc1ccco1)C(=O)C2(O)C(F)(F)F (centres undefined) | -1.43 | 0.0651 µM [falling, full curve, poor fit] | 
CN1CCN(C(=O)CN(C2CCCCC2)S(=O)(=O)c2ccccc2)CC1 |  | 0.13 µM [falling, full curve, poor fit] | 
CC(=O)c1c(C)n(-c2ccccc2)c2ccc(OCC(O)CN3CCOCC3)cc12 (centres undefined) | 23.9 | 8.2 µM [rising, partial curve] | 
CCOC(=O)CSc1nnc(CNC(=O)c2cccc(C)c2)n1C | 7.24 |  | 4.11 µM [falling, single point]
CC(=O)c1sc(NC(=O)Cc2c(F)cccc2Cl)nc1C | 9.21 | 2.51 µM [falling, full curve, poor fit] | 
O=C(NCc1cccnc1)c1ccc([N+](=O)[O-])o1 | -15.7 | 0.00651 µM [falling, full curve, poor fit] | 
CCOC(=O)CCCCC(=O)NC(CO)C(=O)NC (centres undefined) |  | 0.731 µM [falling, full curve, poor fit] | 0.0651 µM [falling, full curve, poor fit]
COc1ccc(CCN2C(=O)C(O)=C(C(C)=O)C2c2ccccc2OC)cc1OC (centres undefined) | -1.94 |  | 2.59 µM [falling, partial curve, poor fit]
CCCc1cc(=O)n2[nH]c(NCc3ccccc3Cl)nc2n1 | -4.46 |  | 1.3 µM [rising, partial curve, poor fit]
COc1ccc(CNC(=O)C(C)NC(=O)c2cc3ccccc3o2)cc1 (centres undefined) |  | 1.84 µM [rising, partial curve] | 2.31 µM [rising, partial curve]
COc1ccc(C2=NN(C(=O)c3ccco3)C(c3ccco3)C2)cc1OC (centres undefined) | 31.2 | 6.51 µM [rising, partial curve] | 
COC(=O)CCNc1ccc2c(c1)OCCO2 | 5.18 |  | 
COc1ccc(C(=O)Nc2ccc3c(c2)n(C)c(=O)n3C)cc1OC | -29 |  | 
Cc1ccc(N2C(=O)c3cccc4c(N)ccc(c34)C2=O)c2cccnc12 | -41.6 | 11.6 µM [falling, partial curve, poor fit] | 8.2 µM [falling, partial curve]
O=C(Nc1ccon1)c1ccc2c(c1)OCO2 |  | 6.51 µM [rising, single point] | 

A second format for part of the listing above.
Structure (SMILES)	cell number change [%]	AC50 [1]	AC50 [2]
CCCc1cc(=O)[nH]c(SCC(=O)N(CC)C2CCS(=O)(=O)C2)n1 (centres undefined)	-14.6	29.1 µM [falling, single point]	
CC(C)Cn1c(-c2ccc(Cl)cc2)cnc1SCC(=O)N1CCOCC1	-14.2	2.06 µM [falling, partial curve, poor fit]	2.06 µM [falling, partial curve, poor fit]

(list continues)

Structure (SMILES) | cell number change [%] | AC50 [1] | AC50 [2]
NC(=O)c1ccccc1NC(=O)N1CCOCC1 | 13.4 | 29.1 µM [rising, single point] | 
COc1ccc(NC(=O)CN2C(=O)NC(c3ccccc3)(c3ccccc3)C2=O)cc1 |  | 3.66 µM [rising, full curve] | 
O=C(Nc1nnc(-c2ccccc2Cl)o1)c1nc2ccccc2s1 | -61.5 |  | 16.4 µM [falling, single point]
COc1ccc(OC)c(NC(=O)C2CCCN2S(=O)(=O)c2cccc3nsnc23)c1 (centres undefined) | -22.1 |  | 
CN(c1ccc(C(=O)N2CCCCCC2)cc1)S(=O)(=O)c1ccc(Cl)cc1 | 6.34 |  | 0.731 µM [rising, full curve]
Cc1ccc(/C=C/C(=O)NCc2ccc3c(c2)OCO3)o1 | 10 | 1.84 µM [rising, partial curve, poor fit] | 
CC(=O)c1cccc(NC(=O)C(OC(=O)c2ccccc2NS(=O)(=O)c2cccs2)c2ccccc2)c1 (centres undefined) | -8.67 |  | 
CC1CCN(CCOc2ccc(C(=O)c3ccccc3)cc2)CC1 | 10.1 | 0.731 µM [rising, full curve, poor fit] | 
Fc1ccc(-n2cc(-c3ccccc3)c3c(=S)nc[nH]c32)cc1 | 3.58 |  | 
CNC(=S)N/N=C/c1cc(C)n(-c2ccc(Cl)c(Cl)c2)c1C | -13.1 | 0.092 µM [falling, full curve, poor fit] | 
CC(C)(C)c1ccc(C(=O)c2c[nH]c(C(=O)NCc3ccco3)c2)cc1 | -11.7 |  | 4.11 µM [falling, single point]
Cc1cccc(NC(=O)c2ccc3c(c2)OCCO3)c1C | -47.4 | 5.62 µM [falling, single point] | 0.411 µM [falling, full curve, poor fit]
Cc1ccc(C(C)n2cc(C(=O)NCc3cccnc3)nn2)cc1 (centres undefined) | 83.1 |  | 14.6 µM [rising, partial curve]
Cn1ncc2c(N3CCCCC3)nc(NCCCO)nc21 | -5.37 | 29.1 µM [rising, single point] | 
CC(=O)N1CCN(c2nc(N)c(C#N)c(CC#N)c2C#N)CC1 | 21.7 | 0.731 µM [rising, full curve, poor fit] | 
CCOc1ccc(C(=O)NN2CCOCC2)cc1 | 16.4 | 29.1 µM [rising, single point] | 
O=C(/C=C/c1ccco1)OCC(=O)c1cccc([N+](=O)[O-])c1 | 14.3 | 6.51 µM [rising, single point] | 
C=CCn1c(SCC(=O)Nc2nc3ccccc3s2)nnc1-c1ccccc1O | -75.9 |  | 
Fc1ccccc1COc1ccc(-c2nnn(Cc3ccccc3F)n2)cc1 | 21.7 | 0.184 µM [rising, full curve] | 
